Here are results for one molecule from paper doi:10.1101/2025.06.03.657657.

Results are given in words; binding and its absence hold for the method and conditions named. In cells and extracts the contact can be indirect. Tags and fused reporters may be left off the sequences shown.

The target of assay [1] is PoptrGNOMa-YFP (Populus trichocarpa). The experiment in a line: co-IP.
For assay [2], the target named is PoptrGNOMb-YFP (Populus trichocarpa). The experiment in a line: co-IP.

B1: AtGNL1-Myc (protein, UniProt Q9FLY5 1-1443)
chain: MGYQNHPSGSNSFHGEFKRCHSKPSKGAVASMINSEIGAVLAVMRRNVRWGVRYIADDDQLEHSLIHSLKELRKQIFSWQSNWQYVDPRLYIQPFLDVILSDETGAPITGVALSSVYKILTLEVFTLETVNVGEAMHIIVDAVKSCRFEVTDPASEEVVLMKILQVLLACVKSKASNGLSNQDICTIVNTCLRVVHQSSSKSELLQRIARHTMHELIRCIFSQLPFISPLANECELHVDNKVGTVDWDPNSGEKRVENGNIASISDTLGTDKDDPSSEMVIPETDLRNDEKKTEVSDDLNAAANGENAMMAPYGIPCMVEIFHFLCTLLNVGENGEVNSRSNPIAFDEDVPLFALGLINSAIELGGPSFREHPKLLTLIQDDLFCNLMQFGMSMSPLILSTVCSIVLNLYLNLRTELKVQLEAFFSYVLLRIAQSKHGSSYQQQEVAMEALVDLCRQHTFIAEVFANFDCDITCSNVFEDVSNLLSKNAFPVNGPLSAMHILALDGLISMVQGMAERVGEELPASDVPTHEERYEEFWTVRCENYGDPNFWVPFVRKVKHIKKKLMLGADRFNRDPNKGLQYLQGVHLLPEKLDPKSVACFFRYTCGLDKNVMGDFLGNHDQFCIQVLHEFAKTFDFQNMNLATALRLFVGTFKLSGEAQKIHRVLEAFSERYYEQSPHILIDKDAAFVLAYSIILLNTDQHNAQVKTRMTEEDFIRNNRTINGGADLPREYLSEIYHSIRHSEIQMDEDKGTGFQLMTASRWISVIYKSKETSPYIQCDAASHLDRDMFYIVSGPTIAATSVVFEQAEQEDVLRRCIDGLLAIAKLSAYYHLNSVLDDLVVSLCKFTPFFAPLSADEAVLVLGEDARARMATEAVFLIANKYGDYISAGWKNILECVLSLNKLHILPDHIASDAADDPELSTSNLEQEKPSANPVPVVSQSQPSAMPRKSSSFIGRFLLSFDSEETKPLPSEEELAAYKHARGIVKDCHIDSIFSDSKFLQAESLQQLVNSLIRASGKDEASSVFCLELLIAVTLNNRDRILLIWPTVYEHILGIVQLTLTPCTLVEKAVFGVLKICQRLLPYKENLTDELLKSLQLVLKLKAKVADAYCERIAQEVVRLVKANASHVRSRTGWRTIISLLSITARHPEASEAGFEALRFIMSEGAHLLPSNYELCLDAASHFAESRVGEVDRSISAIDLMSNSVFCLARWSQEAKNSIGETDAMMKLSEDIGKMWLKLVKNLKKVCLDQRDEVRNHAISMLQRAIAGADGIMLPQPLWFQCFDSAVFILLDDVLTFSIENSRKTLKKTVEETLVLATKLMSKAFLQSLQDISQQPSFCRLWVGVLNRLETYMSTEFRGKRSEKVNELIPELLKNTLLVMKATGVLLPGDDIGSDSFWQLTWLHVNKISPSLQSEVFPQEELDQFQRRNAKPEDPPVPGNEV
For the molecule B1, the binding result in assay [1] and in assay [2] was “no binding” in each case.
